Amino acid sequences for entries named in this document (tags omitted).
UniProt Q8NER1, whole entry, looked up: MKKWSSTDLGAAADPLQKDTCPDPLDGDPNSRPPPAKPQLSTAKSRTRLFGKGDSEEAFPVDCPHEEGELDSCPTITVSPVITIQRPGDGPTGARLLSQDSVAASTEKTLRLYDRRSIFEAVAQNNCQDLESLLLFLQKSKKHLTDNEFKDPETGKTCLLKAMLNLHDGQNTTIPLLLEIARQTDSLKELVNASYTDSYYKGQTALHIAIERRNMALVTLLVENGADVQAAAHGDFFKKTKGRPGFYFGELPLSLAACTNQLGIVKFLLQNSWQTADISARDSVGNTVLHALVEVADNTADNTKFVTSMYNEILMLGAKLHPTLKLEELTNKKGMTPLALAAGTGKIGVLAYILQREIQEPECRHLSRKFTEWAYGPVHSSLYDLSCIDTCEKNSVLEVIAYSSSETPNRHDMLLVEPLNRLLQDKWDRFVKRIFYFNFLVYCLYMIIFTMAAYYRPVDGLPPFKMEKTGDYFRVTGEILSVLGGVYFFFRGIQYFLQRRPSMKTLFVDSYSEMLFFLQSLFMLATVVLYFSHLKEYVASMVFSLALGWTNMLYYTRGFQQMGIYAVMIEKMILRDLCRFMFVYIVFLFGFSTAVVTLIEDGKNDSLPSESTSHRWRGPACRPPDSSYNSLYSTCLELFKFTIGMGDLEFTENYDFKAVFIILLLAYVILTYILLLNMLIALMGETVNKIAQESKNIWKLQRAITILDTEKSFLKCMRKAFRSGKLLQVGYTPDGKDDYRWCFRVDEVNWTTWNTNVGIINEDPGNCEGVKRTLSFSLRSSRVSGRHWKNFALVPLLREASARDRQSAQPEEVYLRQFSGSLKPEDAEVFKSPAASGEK

The whole screen tested about 320,000 compounds, of which about 620 (0.19%) were called active. Inconclusive results, whose numbers are uncertain, are shown with a selection of clear calls. Cut-off read from the data, not from the text of the source: active = activation above about 80%; inconclusive = between about 30% and that limit; inactive = weaker than that.
What follows are molecules tested against Transient receptor potential cation channel subfamily V member 1 (Homo sapiens) (UniProt Q8NER1) (assay: HTS Assay for Compounds that Act as Agonists of the Vanilloid Receptor 1). Settings: TRPV1-expressing cells, Fluo-8 calcium influx, agonist mode; at 8.33 µM, active compounds read high.
Method in brief: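 Cells expressing TRPV1 were dye-loaded with Fluo-8 and read kinetically: 10 s baseline, 3 min after compound (agonist portion), then 2 min after EC20 capsaicin (allosteric enhancer portion). Calcium-bound dye fluorescence at 480/520 nm.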
In the case of `O=C(Nc1nnc(C2=COCCO2)o1)c1cccc([N+](=O)[O-])c1`, the activation was inactive: 1.94%.
For `CN(CC(=O)Nc1ccc(F)cc1)C(=O)C1CCN(S(=O)(=O)c2ccc3c(c2)OCCO3)CC1`, the activation was inactive: -1%.
With `CSc1nc2ccc3nc(NC(=O)c4ccccc4)sc3c2s1` the activation was inactive: 5.42%.
In the case of `Cc1ccc(C(=O)N/C(=C\c2ccc(-c3cc(Cl)ccc3Cl)o2)C(=O)NCc2cccnc2)cc1`, the activation was inconclusive: 49.8%.
With `Cc1ccc2cc3cc(C(=O)N4CCCCCC4)oc3nc2c1` the activation was inconclusive: 57.8%.
With `Cc1ccc(C)c(-c2csc(NC(=O)C3=COCCO3)n2)c1` the activation was inconclusive: 77.4%.
In the case of `C/C(=N\Nc1ccc(Cl)c(C(=O)O)c1)c1ccc(N2CCOCC2)cc1`, the activation was inactive: 1.28%.
For `CCCCCOC(=O)NCCOC(=O)Nc1ccc(C(=O)OCC)cc1`, the activation was inconclusive: 34%.
In the case of `Cc1ccc(S(=O)(=O)N2Cc3ccccc3CC2C(=O)Nc2cc(C)on2)cc1` (configuration not stated), the activation was inconclusive: 38.5%.
For `CCCOc1ncnc2c1[nH]c1ccccc12`, the activation was inconclusive: 32%.
In the case of `COc1cc(NC(=O)Cc2nn(C)c(=O)c3ccccc23)cc(OC)c1`, the activation was inconclusive: 42.3%.
In the case of `CC(C)Oc1ccc(S(=O)(=O)N2CCOCC2)cc1NC(=O)C1CCCC1`, the activation was inconclusive: 37.4%.
In the case of `O=C(O)c1ccc(N/N=C/c2cccc(F)c2)cc1`, the activation was inactive: -4.77%.
In the case of `C=C1C(=O)O[C@H]2[C@H]1[C@@H](O)CC(=C)[C@@H]1CC(=O)[C@@H](C)[C@H]21`, the activation was inactive: 0.277%.
For `O=C(O)c1ccc(N/N=C/c2cn(-c3ccccc3)nc2-c2cccs2)cc1`, the activation was inactive: -2.97%.
With `C=CCSc1n[nH]c(-c2ccc(OCCCC)cc2)n1` the activation was inactive: 0.829%.
With `COc1cccc2cc(C(=O)NCc3ccccc3)c(=N)oc12` the activation was inactive: 11.7%.
With `COC(=O)c1ccc(N2CCN(C)CC2)c(NC(=O)COc2ccc(C)cc2)c1` the activation was inconclusive: 50.1%.
In the case of `CCNC(=S)N/N=C/c1cccc(C)c1`, the activation was inactive: -4.14%.
For `O=C(Nc1ccc2c(c1)OCCO2)c1cc2ccccc2o1`, the activation was active: 80.6%.
In the case of `O=C(Nc1ccc(OC(F)(F)F)cc1)Nc1cccc([N+](=O)[O-])c1`, the activation was inconclusive: 62.6%.
With `COc1ccc2cc3c(N)nn(C(=O)c4ccccc4Cl)c3nc2c1` the activation was inactive: -2.71%.
With `Cc1ccc2nc3sc(C(=O)N4CCCc5ccccc54)c(N)c3cc2c1` the activation was inconclusive: 34.4%.
In the case of `COc1ccc2[nH]c(=O)c(C(c3nnnn3C(C)(C)C)N(Cc3ccco3)CC3CCCO3)cc2c1` (configuration not stated), the activation was inconclusive: 44.7%.
For `Cc1cc(Br)ccc1SCC(=O)OCC(=O)NCc1ccc2c(c1)OCO2`, the activation was inconclusive: 33.9%.
For `CCOC(=O)C1CCN(C(c2ccccn2)c2c(C)[nH]c3ccccc23)CC1` (configuration not stated), the activation was inconclusive: 42.1%.
`COc1cccc(NC(=O)c2ccc3c(c2)N(CC(=O)N2CCCCC2)C(=O)C(C)(C)O3)c1` was tested, and the activation was inconclusive: 47.4%.
`CC1CC(C)CN(C(=O)C2CC(=O)N(c3ccc4c(c3)OCCO4)C2)C1` (configuration not stated) was tested, and the activation was inactive: -2.17%.
`COc1ccc(NC(=O)C2CCN(S(=O)(=O)c3c(C)noc3C)CC2)cc1Cl` was tested, and the activation was inconclusive: 51.3%.
With `Cc1ccc(C2=C/C(=C/c3cccs3)C(=O)O2)cc1` the activation was inconclusive: 36.5%.
`Cc1cc(S(=O)(=O)N(C)CCc2ccccc2)ccc1-n1cnnn1` was tested, and the activation was inconclusive: 54.3%.
`Cc1ccc(NC(=O)c2cnn(-c3ccccc3)c2NC(=O)c2ccco2)cc1` was tested, and the activation was inconclusive: 35.4%.
With `COc1ccc2oc(C(=O)NNC(=O)c3ccc(F)cc3)c(C)c2c1` the activation was inconclusive: 47.9%.
With `CC(OC(=O)CC1CC2CCC1C2)C(=O)Nc1cccc(S(=O)(=O)N2CCOCC2)c1` (configuration not stated) the activation was inconclusive: 48.5%.
For `Cc1ccc2c(c1)N(C(=O)CCC(=O)N1CCc3ccccc3C1)CCO2`, the activation was inconclusive: 38.1%.
For `O=C(Nc1ccc(F)cc1)C1C2CCC3C(CCC21)C3(Cl)Cl` (configuration not stated), the activation was inconclusive: 41.9%.
With `O=C(c1ccccc1)c1c2c(cc3sc4ccccc4[n+]13)-c1cccc3cccc-2c13` the activation was inconclusive: 39.9%.
`Cc1cccc(OCCC(=O)Nc2ccc(F)c(F)c2)c1` was tested, and the activation was inconclusive: 51.1%.
For `O=C(Nc1csc([N+](=O)[O-])c1)Nc1ccccc1Cl`, the activation was inconclusive: 55.2%.
`O=C(c1nc2n(n1)C(c1ccc(Cl)cc1)C=C(c1ccccc1)N2)N1CCOCC1` (configuration not stated) was tested, and the activation was inconclusive: 48.2%.
For `CCCN1C(=O)c2cc(C(=O)Nc3ccccc3C)ccc2C1Nc1ccccc1C` (configuration not stated), the activation was inconclusive: 34.4%.
`Cc1ccc(Nc2nnc(-c3ccncc3)s2)c(Br)c1` was tested, and the activation was inconclusive: 57.5%.
For `CCc1cccc(CC)c1NC(=S)NCc1ccc2c(c1)OCO2`, the activation was inactive: -0.0393%.
For `CCCCN(CCCC)c1nc2ccccc2nc1C(C#N)C(=O)NCCCOC` (configuration not stated), the activation was inconclusive: 35.1%.
With `CN(C)c1cccc(C(=O)Nc2cccc(F)c2)c1` the activation was inconclusive: 33.9%.
For `O=C(CCn1ccc2cc(S(=O)(=O)N3CCCC3)ccc21)NCc1ccccc1F`, the activation was inconclusive: 39.6%.
With `O=C(Nc1ccccn1)NC(C(F)(F)F)C(F)(F)F` the activation was inconclusive: 34%.
With `Cc1ccc(C(=O)N(CC(=O)NC2CCCC2)c2cccc(F)c2)s1` the activation was inactive: 23.3%.
In the case of `CCCc1nn(C)c(C(=O)Nc2cccc(Cl)c2)c1Cl`, the activation was inconclusive: 35%.
In the case of `CCOC(=O)CC1C(=O)NCCN1c1nc2ccc(C)cn2c(=O)c1/C=C1\SC(=S)N(C(C)CC)C1=O` (configuration not stated), the activation was active: 139%.
With `O=C(N/N=C\c1ccccn1)C1c2ccccc2Oc2ccccc21` the activation was inconclusive: 37.3%.
For `Cc1nc(-c2ccccc2)sc1C(=O)/C=C/c1ccccc1`, the activation was inconclusive: 36.5%.
`Cc1cnc(C(=O)Nc2ccc(S(=O)(=O)N(C(C)C)C(C)C)cc2)cn1` was tested, and the activation was inconclusive: 66.6%.
`O=c1[nH]c2ccccc2nc1C(Nc1ccccc1)c1ccccc1` (configuration not stated) was tested, and the activation was inconclusive: 38.8%.
In the case of `CCCCOc1ncnc2c1[nH]c1ccccc12`, the activation was inconclusive: 60.6%.
`O=C(c1ccc(=O)n(Cc2ccccc2)n1)N1CCN(C/C=C/c2ccccc2)CC1` was tested, and the activation was inactive: 1.58%.
For `CCn1c(SCC(=O)Nc2ccccc2)nc2nc3c(cc2c1=O)COC(C)(C)C3`, the activation was inactive: 0.461%.
`Cc1c(C(=O)NC(C)c2ccncc2)oc2ccccc12` (configuration not stated) was tested, and the activation was inconclusive: 30.7%.
`CC(C)CN1C(=O)c2ccc(NC(=O)C3CC3)cc2C1=O` was tested, and the activation was inconclusive: 39.7%.
For `CCC(=O)Nc1cccc(-c2nc3ccc(C)cc3o2)c1`, the activation was inconclusive: 39.1%.
`CC(=O)NNC(=O)c1cc2c3ccccc3n(C)c2s1` was tested, and the activation was inactive: 1.39%.
In the case of `O=C(CNC(=O)c1ccc(Cl)cc1Cl)OCc1ccccc1`, the activation was inactive: 21.7%.
For `O=C(COc1ccc(S(=O)(=O)Nc2ccc(Cl)cc2)cc1)N1CCOCC1`, the activation was inactive: -0.827%.
With `Cc1nc(N2CCCCC2)sc1C(=O)c1cccc([N+](=O)[O-])c1` the activation was inactive: 16.5%.
With `Cc1ccc(C(=O)Nc2c(-c3cccs3)nc3cc(C)ccn23)cc1` the activation was inconclusive: 58.2%.
With `CCOC(=O)c1nn(-c2ccc(Br)cc2)cc1C(=O)c1cccc2ccccc12` the activation was inactive: -0.942%.
`CCn1c(-c2c[nH]c3ccccc23)n[nH]c1=S` was tested, and the activation was inactive: 2.89%.
In the case of `O=C(CCCn1c(=S)[nH]c2ccccc2c1=O)N1CCCCC1`, the activation was inactive: 1.89%.
`CC(C)CN(C)Cc1c(C(=O)N2CCc3ccccc3C2)nc2ccc(Cl)cn12` was tested, and the activation was inconclusive: 62.2%.
`CC(C)(C)[C@H]1CCC(=O)N([C@H](CSc2ccccc2)Cc2ccccc2)CC1` was tested, and the activation was inconclusive: 43.3%.
For `COC(=O)C1(Cc2cc(-c3ccccc3)no2)CCN(C(=O)OC(C)(C)C)CC1`, the activation was inconclusive: 34.2%.
With `CCN1C(=O)/C(=C\c2nc3ccccc3c(=O)n2CC)c2ccccc21` the activation was inconclusive: 31.8%.
For `COc1cccc(CC(=O)Nc2ccc(-c3csc(C)n3)cc2)c1`, the activation was inconclusive: 36.6%.
`COC(=O)CCCC1=CC2=C(c3ccccc3)C(=O)C(C)(OC(=O)C3CCCC3)C(=O)C2=CN1C1CCCCC1` (configuration not stated) was tested, and the activation was inconclusive: 62.5%.
`COc1ccc(C(=O)N2c3cc4c(cc3C(C)=CC2(C)C)OCO4)cc1` was tested, and the activation was inconclusive: 37.6%.
For `Cc1ccc(C(NC(=O)NC(C)c2ccccc2)C(Cl)(Cl)Cl)cc1F` (configuration not stated), the activation was inconclusive: 48.2%.
In the case of `CC1(C)CC(=O)C2=C(C1)NC1=C(C(=O)c3ccccc31)C2c1ccc(Cl)cc1` (configuration not stated), the activation was inconclusive: 67%.
With `CCOc1ccc(CN(C)c2ccc(S(=O)(=O)N3CCN(C)CC3)cc2[N+](=O)[O-])cc1OC` the activation was inactive: 3.28%.
In the case of `CCCn1c(=N)c(S(=O)(=O)c2ccc(F)cc2)cc2c(=O)n3ccccc3nc21`, the activation was inconclusive: 38.2%.
For `CN(C)S(=O)(=O)c1ccc2c(c1)/C(=C/c1cc3c([nH]1)CCCC3)C(=O)N2`, the activation was inconclusive: 58.8%.
`O=C(CCCSc1ccc(Cl)cc1)Nc1cc(S(=O)(=O)N2CCOCC2)ccc1O` was tested, and the activation was inconclusive: 34.3%.
With `O=C(Nc1ccccc1F)C(=O)c1cn(CC(=O)N2CCCCC2)c2ccccc12` the activation was inconclusive: 34.8%.
For `Fc1ccc(CSc2nncn2NCc2ccc3c(c2)OCO3)cc1`, the activation was inconclusive: 32.4%.
`Cc1ccccc1N1CCN(C(=O)C2CCCCC2)CC1` was tested, and the activation was inconclusive: 53.6%.
For `Cc1ccc(C(C(=O)NC2CCCCC2)N(Cc2ccco2)C(=O)C2COc3ccccc3O2)o1` (configuration not stated), the activation was inconclusive: 49.7%.
`CN(C)S(=O)(=O)c1ccc(C(=O)NCCOc2ccc(F)cc2)cc1` was tested, and the activation was inconclusive: 37%.
`CN1/C(=C\C(=S)NC(=O)c2ccc([N+](=O)[O-])cc2)C(C)(C)c2ccccc21` was tested, and the activation was inactive: -0.903%.
Note: 0% is about no effect.
